Data taken from patent US20220096411A1, “COMBINING METABOLIC STIMULATION AND AMINO ACIDS TO SENSITIZE TOLERANT BACTERIA TO ANTIBIOTICS” (priority 2019, published 2022).
At least one compound was matched to its structure with a doubt left.

Tested on: Escherichia coli K12 strain MG1655
Experiment: Killing assay (CFU) of tolerant stationary phase cultures
Type: cell-based
Conditions: metabolic stimulation by pyruvate and potentiation by D-amino acids; FIG. 2G

## C[C@@H](O)[C@H]1C(=O)N2C(C(=O)O)=C(SCCN=CN)C[C@H]12 [imipenem, reference compound]
  sensitization of tolerant bacteria to the antibiotic: sensitized tolerant bacteria
